No constants are given. Whether binding was seen depends on the method and setting. In cells and extracts the contact can be indirect. Here binding means that the protein was enriched with, or labelled near, the bait; the list need not be complete.
T1: intein-BHMT (betaine homocysteine S-methyltransferase) (R. norvegicus) (UniProt O09171)
T1 sequence: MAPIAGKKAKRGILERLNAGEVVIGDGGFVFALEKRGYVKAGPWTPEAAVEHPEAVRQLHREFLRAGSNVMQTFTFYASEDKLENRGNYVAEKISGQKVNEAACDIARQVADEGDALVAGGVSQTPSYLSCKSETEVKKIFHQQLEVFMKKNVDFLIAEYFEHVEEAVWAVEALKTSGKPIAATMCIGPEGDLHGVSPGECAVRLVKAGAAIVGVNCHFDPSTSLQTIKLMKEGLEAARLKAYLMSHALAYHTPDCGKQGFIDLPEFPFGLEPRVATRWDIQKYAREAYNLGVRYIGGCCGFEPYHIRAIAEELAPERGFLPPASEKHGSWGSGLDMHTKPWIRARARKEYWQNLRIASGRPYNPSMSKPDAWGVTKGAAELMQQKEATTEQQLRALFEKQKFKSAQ


Target: T1, intein-BHMT (betaine homocysteine S-methyltransferase) (R. norvegicus)
Assay: affinity purification with mass spectrometry; same intein-BHMT chitin column after the salt gradient; proteins recovered together with BHMT upon intein excision with 30 mM 2-mercaptoethanol, 48 h at 23°C (strong interactors); LC-MS/MS; only the target purified

| Binder | binding |
| --- | --- |
| Transmembrane channel-like protein 5 (protein, UniProt Q5M7W4 1-965) MSSFHKNSSYMEDPDYPGYSGSQNHTQNYLRTQDDLEFPGCLDNPGFHHPRRNPYSSDSRTNPDYHHSLAEPDYPGSPSDADYQNTRCHPRSAHPRTRPDYEPDYEPDYNDFQSESYHPDLSMEPDYPGSHGHPGFAGVRSSVNSTGPRTNLGYLDLEEPDYPGAQGNSYHSGPRSHSNLPGSRRNAGYAGSRINSYPDSLGEPDYPGAENQPNSPDFYGKPDYPGAEEGDVYSPSKTLGVIGRSRGSFGILGREDGDYPEGIEMASLGMAGDPRNGYVNPAYMRGSSPVCPDRNLLLCARDWNTSPQGQKLIASLVPMTSRDRIKTIRNQPRTMQEKRELRKIVDKEKNKQSHGTFEANCCAQCLSSLSLAYRRTKSSLSELLNYISLWQKRFKVIGGKFGTSVLSYFSFLRWLLKFNIFSFVMNFSFIIIPQFTVGEKNTLQFTGLEFFTGAGYFRETVMYYGFYTNSTIRHRMGGASYNMQLAYIFTIGACLVICFFSLLFSMAKYFRNNFINPHIYSRGIAKLIFCWDFTVTHEKAVKLKQKNLSTEIRENLSEIRQENDRLTLNQKLTRFSVHVAAWLVSTGITAACCVAVYYLAEYNSEFLKTHKNPGAVLLLPFVVSCINLAVPRFYSMFRLVERYEIPRQEVYVLLIRNIFLKISIVGILCYYWLNIVALSGEECWETLIGQDIYRLLLMDFVFSLADSLLGEFLRRLIGMKFITSLSLQEFDIARNVLELIYAQTLAWLGIFFCPLLPFIQMITLFIMFYVKNVSLMMNFQPPSKAWRASQMITFFIFLLFFPSFTGVLCTLAITIWRLKPSADCGPFRGLPSFIQSIYSWIDTLSHRPGYLWVVWIYQNLIGSVHFFFILTLIVLIITYLYWQITEGRKVMIRLLHEQIINEGKDKMFLIEKLTKLQDIERRANPSTLVLERREVEQQSPLHLEELDAAPDLRLRRSMQEENAIA | binds |
| Zinc finger CCCH-type antiviral protein 1 (protein, UniProt Q8K3Y6 1-776) MADPGVCCFITKILCAHGGRMTLEELLGEIRLPEAQLYELLETAGPDRFVLLETGGQAGITRSVVATTRARVCRRKYCQRPCDSLHLCKLNLLGRCHYAQSQRNLCKYSHDVLSEQNFQILKNHELSGLNQEELACLLVQSDPFFLPEICKSYKGEGRKQTCGQPQPCERLHICEHFTRGNCSYLNCLRSHNLMDRKVLTIMREHGLSPDVVQNIQDICNNKHARRNPPGTRAAHPHRRGGAHRDRSKSRDRFLHNSLEFLSPVVSPLGSGPPSPDVTSCKDSLEDVSVDVTQKFKYLGTHDRAQLSPVSSKAAGVQGPSQMRASQEFSEDGNLDDIFSRNRSDSSSSRASAAKVAQRNEAVAMKMGMEVKGKKEAPDIDRVPFLNSYIDGVTMEKASVSGIPGKKFTANDLENLLLLNDTWKNVAKPQDLQTTGRITDSGQDKAFLQNKYGGNPVWASASTHNAPNGSSQIMDETPNVSKSSTSGFAIKPAIAGGKEAVYSGVQSPRSQVLAVPGEATTPVQSNRLPQSPLSSSSHRAAASGSPGKNSTHTSVSPAIESSRMTSDPDEYLLRYILNPLFRMDNHGPKEICQDHLYKGCQQSHCDRSHFHLPYRWQMFVYTTWRDFQDMESIEQAYCDPHVELILIENHQINFQKMTCDSYPIRRLSTPSYEEKPLSAVFATKWIWYWKNEFNEYIQYGNESPGHTSSDINSAYLESFFQSCPRGVLPFQAGSQKYELSFQGMIQTNIASKTQRHVVRRPVFVSSNDVEQKRRGPE | binds |
| Cullin-associated NEDD8-dissociated protein 2 (protein, UniProt Q9R0L4 1-1273) MSTGAFYISSLLEKMTSSDKDFSPKSLGGSRVLDPLPWLQILAAITDWISGDRTQDLALPRFMATSDLMSELQKDSIQLDEDSERKVVRTLLRLLEDRSGEVQNLAVKCLGPLVGKVKEYQVENIVDTLCANMRSDKEQLRDIAGIGLKTVLSELPPAATGSGLAISVCRKITGQLTSAIAQQEDVAVQLEALDILSDMLSRLGAPLGTFHASLLHCLLPQLSSPRLAVRKRTVVALGHLAAACSTDLFVELADHLVDRLPGPRAPASPAAIRTLIQCLGSVGRQAGHRLGAHLDRLMPLVEEFCNLDDDELRESCLQAFEAFLRKCPKEMDPHVPNVTSLCLQYMKHDPNYNHDSDEEEQMETEDSEFSEQESEDEYSDDDDMSWKVRRAAAKCMAALISSRPDLLPDFHCTLAPALIRCFKEREENVKADIFGAYIMLLRHTRPPKGWLEAVEEPTQTGRNLNMLRAQVPLVMKALQRQLKDRNVRTRQGCFNLFTELAGVLPGCLAEHMTVLVSGIVFSLADYSSSSTIRMDALAFLQGLLGTEPAEAFHPHLPTLLPPVMACVADPFYKVAAEALLVLQELVRTLWPLDRPRLLDPEPYVGEMSTATLARLRATDLDQEVKERAISCVGHLVGHLGDRLGDDLEPTLLLLLDRLRNEITRLPAVKALTLVAVSPLRLDLQPILAEALPILASFLRKNQRALRLATLAALDALAQSQGLGLPPPAVRSVLAELPALVSENDMHVAQLAVDFLTTVTQTQPASLVEVSGPVLEELLQLLHSPLLPAGVLAATEGFLQALVGTRPPCVEYSELISLLTAPVYNQVGDGGPGLHKQVFHSLARCVAALSAACPQEAAGTASRLVCDARSPHSSTGVKVLAFLSLAEVGQVAGPGPQRELKTVLLEALGSPSEDVRAAAAYALGRVGAGNLPDFLPFLLAQIEAQPRRQYLLLHALREALGAAQPDNLKPYVEDVWALLFQRCESPEEGTRCVVAECIGKLVFVNPPFLLPRFRKQLAAGQPYTRSTVITAVKFLISDQPHSIDPLLKSFIAEFMESLQDPDLNVRRATLTFFNSAVHNKPSLVRDLLDDILPLLYQETKIRRDLIREVEMGPFKHTVDDGLDVRKAAFECMYSLLESCLGQLDICEFLNHVEDGLKDHYDIRMLTFIMLARLAALCPAPVLQRVDRLIEPLRATCTAKVKAGSVKQELEKQDELKRSAMRAVAALMTNPEVRKSPSVADFSTQIRSNPELATLFESIQKDTASGPSMDSMELS | binds |
| Transmembrane emp24 domain-containing protein 9 (protein, UniProt Q5I0E7 38-235) LYFHIGETEKKCFIEEIPDETMVIGNYRTQLYDKQREEYQPATPGLGMFVEVKDPEDKVILARQYGSEGRFTFTSHTPGEHQICLHSNSTKFSLFAGGMLRVHLDIQVGEHANDYAEIAAKDKLSELQLRVRQLVEQVEQIQKEQNYQRWREERFRQTSESTNQRVLWWSILQTLILVAIGVWQMRHLKSFFEAKKLV | binds |
| 2',5'-oligoisoadenylate synthetase-dependent ribonuclease L (protein, UniProt Q80WM6 1-738) METTDHSTPQCGSASAGGQKTVGKDDYLLIEAVNKGDADRVQQLLEQGADANVCEESGGWTPLHNAVQSGRVDIVNLLLRYGADPHRRKKNGATPFIVAGICGDVSLLQIFLSRGANINERDMYGFTAFMEAAEYGNVEALKFLFAEGADVNLRRETTEDRRRLKQGGATALMSAAENGHPEVVRILLDEMKAEADARDNMGRNALIRSLLNRDCENVEIHVEEITSVLIQYGADINVRGEGEKTPLISAVKRKHTGLVQMLLSQEGIKVNDRDSEGKTALQIAVELKLKEIVRLLLEKGADTKCGDLVWIAKRNYDHGLVKLLLSYEANHDTNPPAKDWLPHSARWGEALERLHSVSRPMTGKLKIFMNDDYKIASTSEGGIYLGIYDNREVAVKVFCENSSRGRKEVSCLRDCGDHSNLLTFYGSEEHKGSLYVCVSLCESTLEKFLNVPREEPMEKGEDKFALSVLLSIFKGVQKLHMHGYSHQNLQPPNILIDSEKAVRLADFDESIQWMRESQTVQRDLEDLGRLVLYVVNKGEIPFETLKGQNDEELLTIAPNEETKDLVHCLFSPGENVKNCLMDLLGHPFFWTWENRYRTLRDVGNESDIKVRNNKSKLLKLLQPQTHAPSRSFDRWTSKIDKRVMSDMNGFYKSRKGYRDTVGDLLKFIRNIGEHINEEKNRQMKEILGDPSRYFQETFPDLVIYIYKKLKETEFRKHFPQPPPSLSVPEAAGPGGVQS | binds |
| BHMT2 S-methylmethionine homocysteine S-methyltransferase (protein, UniProt Q68FT5 1-363) MAPAGGPRVKKVILERLDSGEVVVGDGGFLFTLEKRGFVKAGLWTPEAVVEYPSAVRQLHTEFLRAGADVLQTFTFSAAEDRMESKWEAVNAAACDLAQEVADGGAALVAGGICQTSLYKYHKDETRIKNIFRLQLGVFARKNVDFLIAEYFEHVEEAVWAVEVLREVGAPVAVTMCIGPEGDMHGVTPGECAVRLSRAGANIIGVNCRFGPWTSLQTMKLMKEGLRDAGLQAHLMVQCLGFHTPDCGKGGFVDLPEYPFGLEPRVATRWDIQKYAREAYNLGVRYIGGCCGFEPYHIRAIAEELAPERGFLPPASEKHGIWGSGLDMHTKPWIRARARREYWETLLPASGRPFCPSLSKPDA | binds |
| Serine/threonine-protein kinase TAO2 (protein, UniProt Q9JLS3 1-1235) MPAGGRAGSLKDPDVAELFFKDDPEKLFSDLREIGHGSFGAVYFARDVRNSEVVAIKKMSYSGKQSNEKWQDIIKEVRFLQKLRHPNTIQYRGCYLREHTAWLVMEYCLGSASDLLEVHKKPLQEVEIAAVTHGALQGLAYLHSHNMIHRDVKAGNILLSEPGLVKLGDFGSASIMAPANSFVGTPYWMAPEVILAMDEGQYDGKVDVWSLGITCIELAERKPPLFNMNAMSALYHIAQNESPALQSGHWSEYFRNFVDSCLQKIPQDRPTSEVLLKHRFVLRERPPTVIMDLIQRTKDAVRELDNLQYRKMKKILFQEAPNGPGAEAPEEEEEAEPYMHRAGTLTSLESSHSVPSMSISASSQSSSVNSLADASDNEEEEEEEEEEEEEEEEEGPESREMAMMQEGEHTVTSHSSIIHRLPGSDNLYDDPYQPEMTPGPLQPPAAPPTSTSSSSARRRAYCRNRDHFATIRTASLVSRQIQEHEQDSALREQLSGYKRMRRQHQKQLLALESRLRGEREEHSGRLQRELEAQRAGFGTEAEKLARRHQAIGEKEARAAQAEERKFQQHILGQQKKELAALLEAQKRTYKLRKEQLKEELQENPSTPKREKAEWLLRQKEQLQQCQAEEEAGLLRRQRQYFELQCRQYKRKMLLARHSLDQDLLREDLNKKQTQKDLECALLLRQHEATRELELRQLQAVQRTRAELTRLQHQTELGNQLEYNKRREQELRQKHAAQVRQQPKSLKVRAGQLPMGLPATGALGPLSTGTLSEEQPCSSGQEAILGQRMLGEEEEAVPERMILGKEGTTLEPEEQRILGEEMGTFSSSPQKHRSLVNEEDWDISKEMKESRVPSLASQERNIIGQEEAGAWNLWEKEHGNLVDMEFKLGWVQGPVLTPVPEEEEEEEEEGGAPIGTPRDPGDGCPSPDIPPEPPPSHLRQYPASQLPGFLSHGLLTGLSFAVGSSSGLLPLLLLLLLPLLAAQGGGGLQAALLALEVGLVGLGASYLFLCTALHLPPSLFLLLAQGTALGAVLSLSWRRGLMGVPLGLGAAWLLAWPSLALPLAAMAAGGKWVRQQGPQMRRGISRLWLRVLLRLSPMVFRALQGCAAVGDRGLFALYPKTNKNGFRSRLPVPWPRQGNPRTTQHPLALLARVWALCKGWNWRLARASHRLASCLPPWAVHILASWGLLKGERPSRIPRLLPRSQRRLGLSASRQLPPGTVAGRRSQTRRALPPWR | binds |
